Where a name gives a salt, the structure may show the parent alone. The list shows a part of the results. No stated cut-off is given here; in the data, active = 0.7 or more and inactive = the rest. Repeats are few or missing, and single values can be far off.

The subject of the test is MiaPaCa-2 CLSA-25. Briefly: cell death relative to DMSO vehicle (fraction); higher = more cytotoxic. The settings on record: 5 µM; treatment time 48 h; medium cystine 25 µM.
Turning to `COc1c(C)cnc(Cn2cnc3c(Cl)nc(N)nc32)c1C`, the cell death is inactive: 0.536.
With `Cc1cc(=O)oc2cc(O)ccc12` [4-Methylumbelliferone] the figure was inactive: 0.0482.
Regarding `CCCCC(CC)COC(=O)CC(C(=O)OCC(CC)CCCC)S(=O)(=O)O` (configuration not stated) [Docusate sodium], the cell death is inactive: 0.0706.
For `C[C@]12C=CC(=O)N[C@@H]1CC[C@@H]1[C@@H]2CC[C@]2(C)[C@@H](C(=O)Nc3cc(C(F)(F)F)ccc3C(F)(F)F)CC[C@@H]12` [Dutasteride] the value was inactive: 0.372.
For `NCc1ccc(S(N)(=O)=O)cc1` [Mafenide hydrochloride] the value was inactive: 0.473; for `CC(CN)C(=O)O` (racemic), inactive: 0.0348.
For `CC(=O)OCC(=O)[C@@]12N=C(C)O[C@@H]1C[C@H]1[C@@H]3CCC4=CC(=O)C=C[C@]4(C)[C@H]3[C@@H](O)C[C@@]12C` [Deflazacort] the value was inactive: 0.123; for `O=C1CCc2ccccc2C1` [Beta-Tetralone], inactive: 0.451.
In the case of `O=C(O)CN1C(=O)c2cccc3cccc(c23)C1=O` [Alrestatin], the cell death is inactive: 0.182.
On to `Cc1coc2c1C(=O)C(=O)c1c-2ccc2c(C)cccc12` [Tanshinone I], for which the cell death was inactive: 0.0169.
On to `CC(=O)CCCCn1c(=O)c2c(ncn2C)n(C)c1=O` [Pentoxifylline], for which the cell death was inactive: 0.0465.
With `CC#C[C@]1(O)CC[C@H]2[C@@H]3CCC4=CC(=O)CCC4=C3[C@@H](c3ccc(N(C)C)cc3)C[C@@]21C` [Mifepristone] the figure was inactive: 0.173.

Source of the values: the supplement of paper PMC12872613.
